Primary screen of a compound library

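Whole-cell assay for inhibitors of Mycobacterium tuberculosis growth, labelled Cornell in the record; the read-out is not stated. The concentration is filed as 10 mM, unlikely as a test dose, so the dose is not known. Higher means stronger inhibition (inferred from two other growth screens of the library). Of about 53,000 compounds tested this way, about 900 (1.7%) reached 50% or more in at least one test.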

Each number is a percent effect as filed. The controls that fix the scale are not given in the record; negative values are as filed. This is an unselected part of the compounds tested.

Compound	effect
CC(C)n1cccc1C(=O)N1CC[C@@H](NC(=O)c2ccccn2)[C@H](O)C1	0.6312
O=C(O)C(F)(F)F.[H][C@@]12CCN(Cc3cc(C)on3)C[C@]1(C(=O)NC(C)C)CCO2	19.36
Cc1cccc(-c2ncc(CNC(C)Cc3ccncc3)cn2)c1 (configuration not stated)	-4.399
CN(C)CCN1CC2(CCN(C(=O)c3cnccn3)CC2)OC1=O	17.03
CCc1cccc(N2CCC(NC(=O)c3ccco3)CC2)c1	19.93
COc1cccc(-c2cc(NCc3nc(C)cs3)n(C)n2)c1	15.73
O=c1c2cccc(C(F)(F)F)c2ncn1CCN1CCNCC1	24.77
CNC(=O)NC(=O)CCN1CCCC1c1nc(C2CCCCC2)co1 (configuration not stated)	29
O=C(Nc1cccnc1)N(Cc1ccccc1)C1CC1	3.513
CC(=O)N1CC2(CCN(C(=O)C3CC3)CC2)c2cc(C)ccc21	-7.034
O=C(O)C1CN(Cc2cccc(-c3ccccn3)c2)CCO1 (configuration not stated)	33.19
CN(Cc1ccc(Cl)s1)C1CCCN(c2cccnn2)C1 (configuration not stated)	22.88
COc1ccc(C)cc1CN(C)CCCNS(C)(=O)=O	3.91
Cc1csc2cc(C(=O)NC3CCCC3)cnc12	-2.974
COc1cc(CNCCn2cc(C)cn2)c2c(c1)CC(C)O2 (configuration not stated)	33.22
COc1ccc(CNCc2cn(C)nc2C)cc1	-73.15
N[C@@H]1c2ccccc2C2(CCN(c3cc(C(F)(F)F)ccn3)CC2)[C@H]1O	2.701
O=C(C1=CCCC1)N1CCC[C@]2(C[C@@H](OCc3ccncc3)CO2)C1.O=C(O)C(F)(F)F	33.09
COCCN(Cc1sccc1C)C(=O)C1CCCN(C(N)=O)C1 (configuration not stated)	27.23
CCCN1CCC(CC(=O)NCc2cc(C)nn2C)CC1	23.83
Cc1ccc(CC(=O)N2CCOC(c3ncc(CN(C)C)[nH]3)C2)s1 (configuration not stated)	-9.33
COC(=O)CC(c1ccc(OC)c(OC)c1)c1oc(C)cc(=O)c1O (configuration not stated)	9.166
CCn1cc(-c2cc(C(F)(F)F)nc(NC3CCCC3)n2)c(C)n1	101.8
Cc1nc(NCc2ccccn2)c2c(n1)c(C)nn2C	13.14
COCC(=O)NCc1cc(=O)n2c(n1)CN(Cc1ccccc1)CCC2.O=C(O)C(F)(F)F	6.068
COc1cccc2c1OCC(C(=O)N1CCN(S(C)(=O)=O)CC1)C2 (configuration not stated)	11.1
CC(C)(C)CC(NC(=O)N1CCS(=O)(=O)CC1)C(F)(F)F (configuration not stated)	-3.622
Cl.O=C(CCn1c(C(F)(F)F)cc2cccnc21)N1CCCC1	-14.31
COc1cc(C)nc(N2CCN(C(C)c3nc(C4CC4)no3)CC2)n1 (configuration not stated)	16.67
O=C(O)C(F)(F)F.[H][C@@]12CCC(=O)N(c3cnn(C)c3)[C@]1([H])CCN2Cc1ccc(OC)cc1	-0.7852
O=C(CC1CCCC1)Nc1ccc(-n2cc(Cl)cn2)nc1	16.97
CC(c1ccncc1)N(C)C(=O)NCCOc1ccc(C#N)cc1 (configuration not stated)	-11.61
Cc1cnc2n(c1=O)CC(C(=O)Nc1cccc3cccnc13)CS2 (configuration not stated)	-17.96
CCC1CN(CCNS(C)(=O)=O)c2ccccc2O1 (configuration not stated)	23.74
Cc1cccc(Oc2ccccc2CNC(=O)C2CCC(=O)NC2)c1 (configuration not stated)	8.378
O=C(CCc1ccco1)Nc1ncn(CC(=O)N2CCCCCC2)n1	16.23
CCCN1CCCn2c(nc(CNC(=O)c3nccn3C)cc2=O)C1.O=C(O)C(F)(F)F	15.09
Cc1ccc(N2CCCC(N3CCC4(CC3)OCCO4)C2=O)cc1 (configuration not stated)	2.652
CS(=O)(=O)N1Cc2ccccc2C2(CCN(C(=O)c3ccno3)CC2)C1	0
Cc1occc1CNC(=O)Nc1ccc2nc(N3CCOCC3)oc2c1	2.657
COCCN1C=NC2(CCC(C(=O)Nc3ccc(C)cc3)CC2)C1=O (configuration not stated)	4.176
CC(C)=CCC1(C(=O)O)CCCN(c2cc(N)ncn2)C1 (configuration not stated)	2.916
O=C(NCCC(O)c1ccco1)c1ccccc1Br (configuration not stated)	24.94
Cn1cc(CN(C/C=C/c2ccccc2)C2CC2)cn1	9.035
COC(=O)[C@@H](NC(=O)Nc1ccc(C(C)=O)cc1)C(C)C	-26.69

Some entries from above, unchanged:

- COC(=O)[C@@H](NC(=O)Nc1ccc(C(C)=O)cc1)C(C)C : -26.69%
- COCCN1C=NC2(CCC(C(=O)Nc3ccc(C)cc3)CC2)C1=O (configuration not stated) : 4.176%
- Cc1cnc2n(c1=O)CC(C(=O)Nc1cccc3cccnc13)CS2 (configuration not stated) : -17.96%
- O=C(CCc1ccco1)Nc1ncn(CC(=O)N2CCCCCC2)n1 : 16.23%
- CC(C)n1cccc1C(=O)N1CC[C@@H](NC(=O)c2ccccn2)[C@H](O)C1 : 0.6312%

Data taken from ChEMBL document CHEMBL3988442, “University of Dundee, Small-Polar-MMV Screening Library” (2021).